The assay deals with T1, TAP-tagged IRF9, Q00978.
T1 chain: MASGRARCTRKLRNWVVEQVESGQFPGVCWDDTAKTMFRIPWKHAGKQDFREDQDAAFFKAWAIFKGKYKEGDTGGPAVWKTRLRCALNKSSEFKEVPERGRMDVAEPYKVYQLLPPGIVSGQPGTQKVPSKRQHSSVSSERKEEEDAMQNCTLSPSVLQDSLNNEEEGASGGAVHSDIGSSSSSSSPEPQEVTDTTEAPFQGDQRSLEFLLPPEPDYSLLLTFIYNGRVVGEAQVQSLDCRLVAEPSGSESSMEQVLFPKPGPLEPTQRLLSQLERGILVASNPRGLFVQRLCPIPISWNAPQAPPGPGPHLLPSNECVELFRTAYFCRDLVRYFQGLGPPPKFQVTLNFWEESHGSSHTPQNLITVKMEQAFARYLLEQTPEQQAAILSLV
The assay can be described thus: co-IP; HEK-293T cotransfected with TAP-tagged IRF9 and HA-tagged STAT1 or STAT2 or FLAG-tagged HDAC1 or HDAC4, 24 h; lysates precipitated via the streptavidin-epitope; immunoblot (Fig. 5D). To be noted: remark: other sources report otherwise. (In general: Immunoblotting shows a protein as a band on a membrane.)

These are yes or no findings as the source states them, for the method shown. Binding seen in cells or lysates may run through a third protein. Some entries that bind do so weakly or less than the wild type. Tags and fused reporters may be left off the sequences shown.

B1: HA-tagged STAT1, P42224 1-750 (protein)
chain: MSQWYELQQLDSKFLEQVHQLYDDSFPMEIRQYLAQWLEKQDWEHAANDVSFATIRFHDLLSQLDDQYSRFSLENNFLLQHNIRKSKRNLQDNFQEDPIQMSMIIYSCLKEERKILENAQRFNQAQSGNIQSTVMLDKQKELDSKVRNVKDKVMCIEHEIKSLEDLQDEYDFKCKTLQNREHETNGVAKSDQKQEQLLLKKMYLMLDNKRKEVVHKIIELLNVTELTQNALINDELVEWKRRQQSACIGGPPNACLDQLQNWFTIVAESLQQVRQQLKKLEELEQKYTYEHDPITKNKQVLWDRTFSLFQQLIQSSFVVERQPCMPTHPQRPLVLKTGVQFTVKLRLLVKLQELNYNLKVKVLFDKDVNERNTVKGFRKFNILGTHTKVMNMEESTNGSLAAEFRHLQLKEQKNAGTRTNEGPLIVTEELHSLSFETQLCQPGLVIDLETTSLPVVVISNVSQLPSGWASILWYNMLVAEPRNLSFFLTPPCARWAQLSEVLSWQFSSVTKRGLNVDQLNMLGEKLLGPNASPDGLIPWTRFCKENINDKNFPFWLWIESILELIKKHLLPLWNDGCIMGFISKERERALLKDQQPGTFLLRFSESSREGAITFTWVERSQNGGEPDFHAVEPYTKKELSAVTFPDIIRNYKVMAAENIPENPLKYLYPNIDKDHAFGKYYSRPKEAPEPMELDGPKGTGYIKTELISVSEVHPSRLQTTDNLLPMSPEEFDEVSRIVGSVEFDSMMNTV
With B1, the binding entry is “binds”.

The values above are taken from publication PMC6575207.
